Measurements published in US20220184172A1, “AMPK/CASPASE-6 AXIS CONTROLS LIVER DAMAGE IN NONALCOHOLIC STEATOHEPATITIS” (The Regents of the University of California, priority 2019, published 2022).

Columns and labels:
CD-HFD fed C57BL/6J mice = assay: AMPK agonist A-769662 in CD-HFD-induced NASH, C57BL/6J mice; type: in vivo; settings: 25 mg/kg i.p. once per day for two weeks after 6 weeks CD-HFD
Experimental: FIGS. 4A-4L. Both an AMPK agonist and a caspase-6 inhibitor therapeutically improve liver damage. FIG. 4A-4I. C57BL/6J mice were fed CD-HFD for 6 weeks, followed by intraperitoneally injection of 25 mg/kg A-769662 or vehicle daily for 2 weeks while continuous CD-HFD. FIG. 4A. Liver sections stained as indicated: TUNEL and DAPI. In the merged image section, the different stains correspond to the grayscale shades as indicated in the single stained images to the left. Scale bar=50 μm. FIG. 4B. Quantification of TUNEL-positive nuclei per field in FIG. 4A. n=7. FIG. 4C-4E. Serum ALT (FIG. 4C), AST (FIG. 4D) and ALP (FIG. 4E). n=7. FIG. 4F. H&E and Sirius red staining of liver sections as indicated. Scale bar=100 μm. FIG. 4G. Quantification of liver fibrosis area (% of total area) in FIG. 4F. n=7. FIG. 4H. Liver hydroxyproline. n=8. FIG. 4I. Expression of Tgfb, Timp1, Col1a1, Col3a1, Pdgfa, Pdgfb, Pdgfra and Ddr2 in livers. n=8. *, P<0.05, Student's unpaired t test. FIGS. 4J-4L. Flox and LAKO mice were fed CD-HFD for 6 weeks, followed by intraperitoneally injection of 5 mg/kg VEID (SEQ ID NO: 71) or vehicle every other day for 2 weeks while continuous feeding. FIG. 4J. […] Quantification of TUNEL-positive nuclei per field in FIG. 4J. n=5-6. […]
FIGS. 5A-5K. […] Quantification of aCasp6 staining per field in FIG. 5I. n=7. […]

[1] = system: CD-HFD-fed Flox and LAKO mice; assay: Caspase-6 inhibitor Z-VEID-FMK in CD-HFD-fed Flox and LAKO mice; type: in vivo; settings: 5 mg/kg i.p. every other day for two weeks after 6 weeks CD-HFD
Excerpt: FIG. 4A. […] Scale bar=50 μm. FIG. 4B. […] FIG. 4F. […] Scale bar=100 μm. FIG. 4G. […] Scale bar=50 μm.
FIG. 6A. […] FIG. 6B. […] FIG. 6C. […] FIG. 6D. […] FIG. 6E. […] FIG. 6F.
FIGS. 14A-14G. […] FIG. 14A. […] Scale bar=100 μm.

With `N#Cc1c(O)c2c(-c3ccc(-c4ccccc4O)cc3)csc2[nH]c1=O` [A-769662] the body weight (CD-HFD fed C57BL/6J mice) was “no effect” and the liver weight (CD-HFD fed C57BL/6J mice) was “no effect”.

For “Z-VEID-FMK (N-terminal Z (Cbz), C-terminal FMK)”, the body weight [1] was “did not affect” and the liver weight [1] was “did not affect”.
